According to patent US9896663B2, “Leukaemia stem cell line, its method of production and uses thereof” (Peter MacCallum Cancer Institute, priority 2016, dated 2018):

System: parental, vehicle and resistant cells
Details: 600 nM I-BET 151, 48 hours; two-tailed Student's t-test; FIG. 2A

COc1cc2c(cc1-c1c(C)noc1C)ncc1[nH]c(=O)n([C@H](C)c3ccccn3)c12 [I-BET, I-BET 151]
amount of intracellular and extracellular drug, resistant versus parental and vehicle cells: no significance difference
